The chains behind the UniProt entries cited, without tags or fusion partners.
UniProt P53350, whole entry, looked up: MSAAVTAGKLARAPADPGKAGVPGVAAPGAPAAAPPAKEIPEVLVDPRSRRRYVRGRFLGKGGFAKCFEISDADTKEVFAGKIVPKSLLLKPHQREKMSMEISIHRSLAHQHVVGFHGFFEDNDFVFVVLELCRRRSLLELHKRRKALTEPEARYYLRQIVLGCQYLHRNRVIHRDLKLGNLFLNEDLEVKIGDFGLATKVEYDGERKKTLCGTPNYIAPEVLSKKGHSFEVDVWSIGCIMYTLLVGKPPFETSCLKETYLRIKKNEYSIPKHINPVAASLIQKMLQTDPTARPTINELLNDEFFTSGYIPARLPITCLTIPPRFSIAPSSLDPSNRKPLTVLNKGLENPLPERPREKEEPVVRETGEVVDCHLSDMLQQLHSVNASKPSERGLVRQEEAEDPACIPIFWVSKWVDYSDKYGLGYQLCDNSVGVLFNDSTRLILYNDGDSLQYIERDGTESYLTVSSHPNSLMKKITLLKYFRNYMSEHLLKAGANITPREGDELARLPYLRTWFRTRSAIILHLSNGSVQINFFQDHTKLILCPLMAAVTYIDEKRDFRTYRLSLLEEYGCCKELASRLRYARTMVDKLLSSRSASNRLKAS

Among all 360,000 compounds or so, about 10,000 (2.8%) were called active. Inconclusive means that the source gave no clear call. Such entries were picked first, then a sample of the others. The call rests on the fitted dose curve; in most records, active means well fitted inhibition curve with a large enough effect; inconclusive means small, poorly fitted or top-dose-only effect; inactive means flat fitted curve, though single readings scatter. Where the call is inconclusive, the potency comes from a doubtful curve fit.
Each compound was assayed against Serine/threonine-protein kinase PLK1 (Homo sapiens) (UniProt P53350) (assay: qHTS for Inhibitors of PLK1-PDB (polo-like kinase 1 - polo-box domain): Primary Screen). Details: Plk1 PBD binding of FITC phosphopeptide, fluorescence polarization.
With `CCC1S/C(=N/N=C/c2ccco2)N(Cc2ccccc2)C1=O` (centres undefined) the max response, negative = inhibition was inactive: 3.85%.
With `CCOCc1c(C(=O)OCC(=O)Nc2ccccc2C(N)=O)oc2ccccc12` the max response, negative = inhibition was inactive: -13.4%.
With `COC(=O)c1sccc1NC(=S)N1C(C)CCCC1C` (centres undefined) the Potency was inconclusive: 10.6 µM [inhibitor, partial curve].
`COc1ccc(C)cc1NC(=O)c1ccc2c(=O)n3c(nc2c1)CCCCC3` was tested, and the Potency was active: 23.8 µM.
`COc1ccc(-c2cnc(NCc3cc4c(cc3[N+](=O)[O-])OCO4)n2C)cc1` was tested, and the max response, negative = inhibition was inactive: -1.17%.
`COc1ccc(F)cc1-c1cc(C(=O)NCc2ccc(C(F)(F)F)cc2)[nH]n1` was tested, and the max response, negative = inhibition was inactive: -0.238%.
With `NCCCCC(=O)O` the max response, negative = inhibition was inactive: -9.62%.
In the case of `Cc1ccc(C2CC2C(=O)NNC(=S)Nc2cccc(Cl)c2)cc1` (centres undefined), the Potency is reported as inconclusive: 29.9 µM [inhibitor, single point].
With `CC1CN(C(=O)c2cc3ccccc3oc2=O)CC(C)O1` (centres undefined) the Potency was inconclusive: 37.7 µM [inhibitor, single point].
`Oc1c(Br)cc(Cl)cc1C=Nc1ccc(N2CCOCC2)cc1` was tested, and the max response, negative = inhibition was inactive: -18.6%.
In the case of `O=C(COc1ccc(S(=O)(=O)N2CCCC2)cc1[N+](=O)[O-])N1CCCCC1`, the max response, negative = inhibition is reported as inactive: 0.94%.
For `Cc1ccc(OCC(=O)Nc2ccc3c(c2)nc2n3CCOC2)cc1`, the max response, negative = inhibition was inactive: -10.1%.
With `CC(C)NS(=O)(=O)c1ccc(NCCCn2ccnc2)c([N+](=O)[O-])c1` the max response, negative = inhibition was inconclusive: -6.93% [inhibitor].
`Cc1ccc(N(CC(=O)NCCSc2ccccn2)S(C)(=O)=O)cc1` was tested, and the Potency was inconclusive: 15 µM [inhibitor, partial curve].
`COc1ccc(N2N=NN(C(C)C)C2=C(Cl)c2nnnn2-c2ccc(OC)cc2)cc1` was tested, and the Potency was inconclusive: 23.8 µM [inhibitor, partial curve].
In the case of `Cc1cc(C)c2cc(C#N)c(N3CCCC3)nc2c1`, the max response, negative = inhibition is reported as inactive: -24.9%.
`COc1ccccc1N1CCN(CC(=O)c2c(C)[nH]c3ccccc23)CC1` was tested, and the max response, negative = inhibition was inactive: -5.32%.
In the case of `O=C(OCc1cc2ccccc2[nH]c1=O)c1cccs1`, the max response, negative = inhibition is reported as inactive: -0.349%.
In the case of `CCOC(=O)C1CCN(C(=O)COC(=O)CSc2ccc([N+](=O)[O-])cc2)CC1`, the Potency is reported as inconclusive: 23.8 µM [inhibitor, partial curve].
`COc1cccc(C2C(C(=O)c3cc4ccccc4o3)=C(O)C(=O)N2c2cc(C)on2)c1OC` (centres undefined) was tested, and the max response, negative = inhibition was inactive: -8.71%.
For `C=CCSc1ccsc1C(=O)O`, the max response, negative = inhibition was inconclusive: -33.7% [inhibitor].
For `CCOc1ccc(C(=O)CCN2CCOCC2)cc1`, the Potency was inconclusive: 26.7 µM [inhibitor, partial curve].
With `CCOc1ccc(S(=O)(=O)NN=C2CCN(C(C)=O)CC2)cc1` the max response, negative = inhibition was inactive: -4.26%.
In the case of `O=C(COc1ccccc1F)N1c2ccccc2CCc2ccccc21`, the Potency is reported as inconclusive: 3.77 µM [inhibitor, full curve].
With `CC(=O)c1ccccc1OCC(O)CN1CCN(CCN2C(=O)c3cccc4cccc(c34)C2=O)CC1` (centres undefined) the max response, negative = inhibition was inactive: -16.5%.
For `O=C(C1=C(O)C(=O)N(c2ncccn2)C1c1cccs1)c1ccco1` (centres undefined), the max response, negative = inhibition was inactive: -18.5%.
For `O=[N+]([O-])c1ccc(CSc2ccc(S(=O)(=O)N3CCCCC3)cn2)cc1`, the max response, negative = inhibition was inconclusive: -32% [inhibitor].
For `CCN1CCN(C(CNS(=O)(=O)c2ccc(Br)cc2)c2cccnc2)CC1` (centres undefined), the max response, negative = inhibition was inactive: 0.0955%.
With `Cc1cc(NC(=O)c2cccs2)ncc1NC(=O)c1cccc(F)c1` the Potency was inconclusive: 7.52 µM [inhibitor, single point].
In the case of `Cc1cc(C)n2c(SCCN3C(=O)c4ccccc4C3=O)nnc2n1`, the max response, negative = inhibition is reported as inconclusive: -32.3% [inhibitor].
In the case of `Cc1ccc2nc3n(c(=O)c2c1)-c1cc2ccccc2cc1C(=O)NC3Cc1ccccc1` (centres undefined), the Potency is reported as inconclusive: 8.44 µM [inhibitor, single point].
`O=C(Nc1ccc(Br)c2ccccc12)c1ccc2ccccc2c1O` was tested, and the Potency was inconclusive: 26.7 µM [inhibitor, partial curve].
`O=C(NC1CCCCC1)n1c(=O)oc2ccc(Cl)cc21` was tested, and the Potency was active: 5.97 µM.
`COc1cccc(CNC(=O)Cc2ccc(NC(=O)C3=C(C)OCCS3)cc2)c1` was tested, and the Potency was inconclusive: 26.7 µM [inhibitor, single point].
For `CCOc1ccc(C2/C(=C(\O)c3ccc4c(c3)OCCO4)C(=O)C(=O)N2CCCn2ccnc2)cc1OC` (centres undefined), the Potency was inconclusive: 29.9 µM [inhibitor, partial curve].
With `COc1cc(C(=O)ON=C2C(C)=CC(=O)C=C2C)cc(OC)c1OC` the Potency was inconclusive: 2.38 µM [inhibitor, full curve].
For `COc1cc(/C=N/NC(=O)c2ccc3c(c2)OCCO3)c(Br)c(Br)c1O`, the max response, negative = inhibition was inconclusive: -30.9% [inhibitor].
For `CC(=O)OCCN1c2ccccc2Sc2cnccc21`, the max response, negative = inhibition was inactive: -8.24%.
For `O=C1NC(=O)/C(=C/c2ccc(-c3cc(C(=O)O)ccc3Cl)o2)S1`, the Potency was inconclusive: 21.2 µM [inhibitor, partial curve].
In the case of `Cc1ccc(/C=C2/SC(=O)N(CC(=O)N3CCOCC3)C2=O)s1`, the Potency is reported as inconclusive: 37.7 µM [inhibitor, single point].
For `Cn1c(OCc2cccnc2)nc2c1c(=O)n(Cc1ccccc1)c(=O)n2C`, the max response, negative = inhibition was inactive: -8.73%.
`C=C(C)CSC1=C(C#N)C(c2ccsc2)CC(=O)N1` (centres undefined) was tested, and the max response, negative = inhibition was inactive: -24.4%.
For `CC1=NN(c2ccccc2)C(=O)/C1=C/c1c(O)n(-c2ccc(F)cc2)[nH]c1=O`, the Potency was inconclusive: 23.8 µM [inhibitor, partial curve].
For `O=[N+]([O-])c1cc2oc3c(c2c(C=NCc2ccncc2)c1O)CCCC3`, the Potency was inconclusive: 23.8 µM [inhibitor, single point].
For `CC(C)(CCc1ccccn1)C(=O)CCCc1ccccn1`, the max response, negative = inhibition was inactive: 0.764%.
For `c1coc(-c2nn3c(Cn4nnc5ccccc54)nnc3s2)c1`, the Potency was active: 26.7 µM.
For `Clc1ccc(/C=N/Nc2nn[nH]n2)cc1`, the max response, negative = inhibition was inactive: -9.06%.
For `COCCC(=O)N1CCC(Oc2ccc(C(=O)N(C)C(C)c3ccon3)cc2)CC1` (centres undefined), the Potency was active: 26.7 µM.
`CCOC(=O)N/N=C(C)/C=C/c1ccco1` was tested, and the max response, negative = inhibition was inactive: -2.61%.
In the case of `CN(C)S(=O)(=O)c1cccc(N=C2NN=C(c3ccccc3)CS2)c1`, the Potency is reported as inconclusive: 33.6 µM [inhibitor, partial curve].
In the case of `CN(C)S(=O)(=O)c1cccc(NC(=S)NC2CCCCC2)c1`, the max response, negative = inhibition is reported as inactive: -8.33%.
In the case of `CCOc1cc(C(c2c(C)[nH][nH]c2=O)c2c(C)[nH][nH]c2=O)cc(Br)c1OC`, the Potency is reported as inconclusive: 26.7 µM [inhibitor, partial curve].
In the case of `COCCN1C(=O)/C(=C/c2cc3c(cc2Br)OCO3)NC1=S`, the Potency is reported as inconclusive: 10.6 µM [inhibitor, partial curve].
`O=C1CC(Sc2ccc(Cl)cc2)C(=O)N1c1ccc2c(c1)OCCO2` (centres undefined) was tested, and the Potency was inconclusive: 11.9 µM [inhibitor, partial curve].
In the case of `CCC(=O)NC(=S)Nc1cccc(NC(=O)c2ccco2)c1`, the Potency is reported as inconclusive: 37.7 µM [inhibitor, single point].
In the case of `CCOC(=O)c1[nH]c(C)c(/C(C)=N\O)c1C`, the max response, negative = inhibition is reported as inactive: -6.58%.
With `CC(=O)N1CCc2cc(S(=O)(=O)CCC(=O)Nc3ccc(Cl)cc3F)ccc21` the Potency was inconclusive: 33.6 µM [inhibitor, partial curve].
In the case of `CCC1(C)Cc2sc3c(=O)[nH]c(=S)[nH]c3c2CO1` (centres undefined), the Potency is reported as active: 10.6 µM.
`COc1ccc(-c2cc(C(=O)Nc3c(C)n(C)n(-c4ccccc4)c3=O)c3ccccc3n2)c(OC)c1` was tested, and the Potency was inconclusive: 37.7 µM [inhibitor, single point].
With `COCCNC(=O)C(=O)NNC(=O)COc1ccc(OC)cc1` the Potency was inconclusive: 8.44 µM [inhibitor, single point].
`O=C(COc1ccc(C(=S)N2CCCC2)cc1)Nc1ccccc1C(F)(F)F` was tested, and the Potency was inconclusive: 21.2 µM [inhibitor, partial curve].
For `CCOc1ccc(/C=C2\SC(=S)N(NS(=O)(=O)c3ccc(C)cc3)C2=O)cc1OC`, the Potency was inconclusive: 26.7 µM [inhibitor, partial curve].
`Cc1cc(C)c(S(N)(=O)=O)c(C)c1N(C)S(=O)(=O)c1ccccc1` was tested, and the max response, negative = inhibition was inactive: -0.773%.
For `FC(F)C(F)(F)C1=CC(c2cccs2)=NCCN1`, the Potency was inconclusive: 23.8 µM [inhibitor, partial curve].
For `S=c1[nH]c2cnccc2n1Cc1ccccc1`, the Potency was inconclusive: 23.8 µM [inhibitor, partial curve].
`COc1cc(C(=S)N2CCN(c3cccc(Cl)c3)CC2)ccc1O` was tested, and the Potency was active: 4.74 µM.
`CCc1ccc(-c2cn3c(n2)SCC3)cc1` was tested, and the Potency was inconclusive: 23.8 µM [inhibitor, partial curve].
With `O=C(C=Cc1ccccn1)c1ccccc1` the Potency was inconclusive: 29.9 µM [inhibitor, partial curve].
`O=C(O)c1ccc(Nc2ncnc3c2cnn3Cc2ccccc2)cc1` was tested, and the Potency was active: 29.9 µM.
With `Cc1nnc(-c2ccc(Oc3ccc(Cl)cc3)c([N+](=O)[O-])c2)o1` the Potency was active: 21.2 µM.
In the case of `Cc1ccc([C@@H]2CC=C(C(=O)O)[C@H](c3ccc(Br)cc3)N2S(=O)(=O)c2ccccc2C)cc1`, the Potency is reported as active: 26.7 µM.
`Cc1ccc(-c2nc(CS(=O)CC(=O)NC3CCCCC3)c(C)o2)cc1` (centres undefined) was tested, and the max response, negative = inhibition was inactive: -15.7%.
With `COc1ccc(CCNC(=O)CC2SC(N)=NC2=O)cc1OC` (centres undefined) the Potency was active: 21.2 µM.
With `CCCCOc1cccc(C2C(C(=O)c3ccc(C)o3)=C(O)C(=O)N2c2nnc(C)s2)c1` (centres undefined) the Potency was inconclusive: 29.9 µM [inhibitor, partial curve].
Further: nearly all actives have a fitted effect of over 65% in size.
On the % scale 0 is the no-effect control and ±100 the full control effect; potency means the concentration at half of the fitted maximal effect.
Wherever max response, negative = inhibition is given: series mostly up to about 57 µM.
